From the supplement of paper PMC6411743
± gives the standard deviation of the averaged measurements. This is a selection; strong and weak results do not stand in their true shares.

The chains behind the UniProt entries cited, without tags or fusion partners. Where a name states a change or a piece, a line headed by the entry shows the natural chain unless it says otherwise.
UniProt Q7Z7K0: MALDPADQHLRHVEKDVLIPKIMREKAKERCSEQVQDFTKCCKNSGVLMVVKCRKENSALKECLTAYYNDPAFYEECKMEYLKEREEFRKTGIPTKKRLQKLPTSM
UniProt Q6ZNE5, whole entry: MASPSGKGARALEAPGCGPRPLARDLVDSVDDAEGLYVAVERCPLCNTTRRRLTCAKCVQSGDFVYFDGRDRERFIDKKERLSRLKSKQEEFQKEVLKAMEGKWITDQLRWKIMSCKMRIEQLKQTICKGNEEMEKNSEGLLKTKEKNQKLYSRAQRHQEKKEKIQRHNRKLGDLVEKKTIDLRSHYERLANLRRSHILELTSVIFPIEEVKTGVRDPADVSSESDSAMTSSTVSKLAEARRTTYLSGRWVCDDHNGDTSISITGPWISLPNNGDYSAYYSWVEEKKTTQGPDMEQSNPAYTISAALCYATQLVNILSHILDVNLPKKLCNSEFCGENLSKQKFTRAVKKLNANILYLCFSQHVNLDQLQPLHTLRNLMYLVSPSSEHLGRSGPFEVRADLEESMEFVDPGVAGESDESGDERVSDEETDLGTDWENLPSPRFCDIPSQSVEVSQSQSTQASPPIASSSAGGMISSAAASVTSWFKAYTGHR
UniProt Q7Z7A1: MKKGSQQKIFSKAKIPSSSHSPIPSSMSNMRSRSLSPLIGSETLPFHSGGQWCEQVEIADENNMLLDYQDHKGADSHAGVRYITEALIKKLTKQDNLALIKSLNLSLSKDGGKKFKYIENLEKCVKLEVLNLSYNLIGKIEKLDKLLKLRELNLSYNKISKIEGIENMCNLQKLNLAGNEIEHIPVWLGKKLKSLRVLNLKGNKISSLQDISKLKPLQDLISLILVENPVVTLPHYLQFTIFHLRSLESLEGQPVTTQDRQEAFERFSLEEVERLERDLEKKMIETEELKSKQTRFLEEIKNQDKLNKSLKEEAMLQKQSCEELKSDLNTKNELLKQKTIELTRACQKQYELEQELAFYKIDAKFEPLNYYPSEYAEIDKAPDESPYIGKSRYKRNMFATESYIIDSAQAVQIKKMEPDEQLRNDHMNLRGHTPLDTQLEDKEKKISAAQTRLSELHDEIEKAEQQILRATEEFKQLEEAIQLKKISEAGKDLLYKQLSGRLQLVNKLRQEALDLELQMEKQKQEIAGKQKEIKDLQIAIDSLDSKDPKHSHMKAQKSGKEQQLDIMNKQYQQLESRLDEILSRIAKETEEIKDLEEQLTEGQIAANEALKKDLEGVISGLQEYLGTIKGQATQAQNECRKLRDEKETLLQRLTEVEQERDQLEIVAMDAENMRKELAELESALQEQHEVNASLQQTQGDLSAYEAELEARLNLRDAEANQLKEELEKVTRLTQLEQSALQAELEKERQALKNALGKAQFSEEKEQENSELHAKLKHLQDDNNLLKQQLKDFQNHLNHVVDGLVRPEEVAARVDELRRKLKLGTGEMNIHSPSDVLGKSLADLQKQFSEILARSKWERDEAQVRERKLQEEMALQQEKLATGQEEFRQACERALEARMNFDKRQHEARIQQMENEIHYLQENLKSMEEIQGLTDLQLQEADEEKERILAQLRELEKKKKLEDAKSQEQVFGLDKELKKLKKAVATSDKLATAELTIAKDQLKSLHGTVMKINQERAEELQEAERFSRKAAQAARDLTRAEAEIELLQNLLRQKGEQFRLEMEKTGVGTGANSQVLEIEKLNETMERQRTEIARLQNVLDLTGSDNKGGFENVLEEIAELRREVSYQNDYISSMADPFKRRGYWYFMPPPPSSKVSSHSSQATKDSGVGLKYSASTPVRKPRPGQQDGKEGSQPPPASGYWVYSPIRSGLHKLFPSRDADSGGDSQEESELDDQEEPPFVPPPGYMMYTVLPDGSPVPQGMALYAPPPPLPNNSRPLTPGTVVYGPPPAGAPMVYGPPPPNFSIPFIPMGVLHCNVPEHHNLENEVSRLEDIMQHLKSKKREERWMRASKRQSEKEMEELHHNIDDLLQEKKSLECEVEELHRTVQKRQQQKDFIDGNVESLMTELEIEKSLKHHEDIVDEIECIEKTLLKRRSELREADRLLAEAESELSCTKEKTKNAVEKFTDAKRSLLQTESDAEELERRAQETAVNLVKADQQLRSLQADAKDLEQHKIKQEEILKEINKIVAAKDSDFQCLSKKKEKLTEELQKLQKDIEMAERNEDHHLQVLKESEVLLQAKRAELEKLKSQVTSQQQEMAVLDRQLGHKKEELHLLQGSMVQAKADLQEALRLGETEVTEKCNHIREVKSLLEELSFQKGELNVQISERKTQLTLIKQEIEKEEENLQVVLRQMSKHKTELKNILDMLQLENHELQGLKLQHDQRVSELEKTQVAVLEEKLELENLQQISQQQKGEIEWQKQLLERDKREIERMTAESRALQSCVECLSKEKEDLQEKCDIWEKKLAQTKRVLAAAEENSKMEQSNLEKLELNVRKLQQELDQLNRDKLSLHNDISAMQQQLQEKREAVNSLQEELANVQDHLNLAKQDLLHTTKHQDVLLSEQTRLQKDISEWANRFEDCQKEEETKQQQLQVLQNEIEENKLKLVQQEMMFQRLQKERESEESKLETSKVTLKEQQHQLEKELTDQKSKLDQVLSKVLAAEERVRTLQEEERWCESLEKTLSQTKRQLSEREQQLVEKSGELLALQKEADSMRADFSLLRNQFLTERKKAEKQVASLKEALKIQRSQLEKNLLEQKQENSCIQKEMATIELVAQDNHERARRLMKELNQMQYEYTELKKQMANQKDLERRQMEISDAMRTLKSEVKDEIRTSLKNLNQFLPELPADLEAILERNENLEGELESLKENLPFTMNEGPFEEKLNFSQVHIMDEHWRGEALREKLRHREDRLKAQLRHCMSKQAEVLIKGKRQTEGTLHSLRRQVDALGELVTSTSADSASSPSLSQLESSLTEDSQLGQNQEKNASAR
UniProt Q7L2H7, whole entry: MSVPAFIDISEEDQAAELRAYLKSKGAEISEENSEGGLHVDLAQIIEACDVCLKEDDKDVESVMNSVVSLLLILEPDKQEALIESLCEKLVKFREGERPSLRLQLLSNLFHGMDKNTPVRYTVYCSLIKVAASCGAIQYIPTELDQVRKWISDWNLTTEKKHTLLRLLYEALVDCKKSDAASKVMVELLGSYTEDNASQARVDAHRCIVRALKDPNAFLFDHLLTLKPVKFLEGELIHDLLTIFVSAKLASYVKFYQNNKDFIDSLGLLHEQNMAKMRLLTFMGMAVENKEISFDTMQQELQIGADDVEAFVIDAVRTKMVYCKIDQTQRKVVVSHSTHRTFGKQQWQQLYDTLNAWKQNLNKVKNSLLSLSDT
UniProt Q7Z4Q2: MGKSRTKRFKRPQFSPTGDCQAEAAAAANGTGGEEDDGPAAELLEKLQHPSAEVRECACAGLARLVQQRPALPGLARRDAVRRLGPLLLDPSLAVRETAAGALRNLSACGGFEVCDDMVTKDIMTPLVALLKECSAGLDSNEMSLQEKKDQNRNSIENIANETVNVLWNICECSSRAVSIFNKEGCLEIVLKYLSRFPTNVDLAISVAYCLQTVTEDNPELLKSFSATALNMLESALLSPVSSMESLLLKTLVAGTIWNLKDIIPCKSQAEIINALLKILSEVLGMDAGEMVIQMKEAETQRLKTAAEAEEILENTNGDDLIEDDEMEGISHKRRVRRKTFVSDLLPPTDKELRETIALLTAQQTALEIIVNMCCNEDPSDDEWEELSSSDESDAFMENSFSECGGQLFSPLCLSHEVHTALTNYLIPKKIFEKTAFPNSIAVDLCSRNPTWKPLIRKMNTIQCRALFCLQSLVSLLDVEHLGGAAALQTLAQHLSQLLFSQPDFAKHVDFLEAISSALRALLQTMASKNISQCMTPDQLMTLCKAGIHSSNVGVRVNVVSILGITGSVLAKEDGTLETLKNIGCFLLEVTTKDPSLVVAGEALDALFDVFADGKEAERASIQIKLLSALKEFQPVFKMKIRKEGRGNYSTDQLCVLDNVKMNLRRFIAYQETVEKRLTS
UniProt Q7Z569: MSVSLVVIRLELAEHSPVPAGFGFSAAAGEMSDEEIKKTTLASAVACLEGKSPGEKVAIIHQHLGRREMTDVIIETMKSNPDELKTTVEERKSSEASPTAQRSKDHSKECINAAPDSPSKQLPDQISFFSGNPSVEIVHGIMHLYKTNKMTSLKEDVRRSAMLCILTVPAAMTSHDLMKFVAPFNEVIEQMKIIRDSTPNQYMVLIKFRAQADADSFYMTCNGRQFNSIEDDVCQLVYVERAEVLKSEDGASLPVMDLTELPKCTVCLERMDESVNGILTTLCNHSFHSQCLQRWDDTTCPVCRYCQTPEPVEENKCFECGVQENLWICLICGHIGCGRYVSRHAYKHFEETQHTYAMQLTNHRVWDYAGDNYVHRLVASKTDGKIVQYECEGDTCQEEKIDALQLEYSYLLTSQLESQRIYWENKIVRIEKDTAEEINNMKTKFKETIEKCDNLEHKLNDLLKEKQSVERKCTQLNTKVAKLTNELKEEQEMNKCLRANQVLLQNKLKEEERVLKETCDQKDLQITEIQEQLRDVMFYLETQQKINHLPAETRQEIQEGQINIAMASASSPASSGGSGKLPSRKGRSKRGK
UniProt Q6UWW8: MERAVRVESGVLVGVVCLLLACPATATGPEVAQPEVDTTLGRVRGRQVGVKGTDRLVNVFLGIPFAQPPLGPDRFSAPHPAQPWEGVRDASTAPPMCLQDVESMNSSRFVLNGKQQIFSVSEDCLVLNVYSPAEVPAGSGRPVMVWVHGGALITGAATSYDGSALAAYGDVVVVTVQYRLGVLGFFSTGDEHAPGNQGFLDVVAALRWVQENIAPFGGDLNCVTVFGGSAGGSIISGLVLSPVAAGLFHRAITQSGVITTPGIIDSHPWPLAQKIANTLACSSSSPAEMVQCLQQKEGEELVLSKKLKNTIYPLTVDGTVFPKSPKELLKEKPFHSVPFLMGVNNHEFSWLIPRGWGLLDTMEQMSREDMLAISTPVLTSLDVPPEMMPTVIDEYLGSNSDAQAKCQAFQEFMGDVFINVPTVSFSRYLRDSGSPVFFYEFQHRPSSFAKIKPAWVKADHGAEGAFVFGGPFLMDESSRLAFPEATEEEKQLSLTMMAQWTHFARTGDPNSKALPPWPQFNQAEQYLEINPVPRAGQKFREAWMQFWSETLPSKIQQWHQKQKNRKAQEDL
UniProt Q86W50: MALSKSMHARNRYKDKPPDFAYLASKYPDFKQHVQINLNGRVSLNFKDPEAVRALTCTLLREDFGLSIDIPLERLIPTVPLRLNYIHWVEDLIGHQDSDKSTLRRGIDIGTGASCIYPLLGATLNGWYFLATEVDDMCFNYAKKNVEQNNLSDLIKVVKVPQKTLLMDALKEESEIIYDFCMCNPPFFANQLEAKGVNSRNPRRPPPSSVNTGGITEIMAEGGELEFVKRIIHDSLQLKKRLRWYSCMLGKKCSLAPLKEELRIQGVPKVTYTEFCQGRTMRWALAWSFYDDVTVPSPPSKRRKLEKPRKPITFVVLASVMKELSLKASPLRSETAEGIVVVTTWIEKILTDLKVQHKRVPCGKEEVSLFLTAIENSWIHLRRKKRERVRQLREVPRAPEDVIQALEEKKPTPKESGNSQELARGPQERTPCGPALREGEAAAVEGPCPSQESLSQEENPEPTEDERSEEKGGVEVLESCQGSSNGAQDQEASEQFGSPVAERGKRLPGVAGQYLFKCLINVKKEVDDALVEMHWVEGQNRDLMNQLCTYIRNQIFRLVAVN
UniProt Q6Y1H2: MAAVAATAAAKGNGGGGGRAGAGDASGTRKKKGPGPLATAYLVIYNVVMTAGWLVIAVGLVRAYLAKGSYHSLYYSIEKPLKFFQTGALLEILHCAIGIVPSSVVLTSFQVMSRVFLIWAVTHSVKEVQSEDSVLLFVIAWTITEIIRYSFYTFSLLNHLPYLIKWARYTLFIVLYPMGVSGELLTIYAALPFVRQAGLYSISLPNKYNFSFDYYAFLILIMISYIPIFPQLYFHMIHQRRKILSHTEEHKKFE
UniProt Q86TM6, whole entry: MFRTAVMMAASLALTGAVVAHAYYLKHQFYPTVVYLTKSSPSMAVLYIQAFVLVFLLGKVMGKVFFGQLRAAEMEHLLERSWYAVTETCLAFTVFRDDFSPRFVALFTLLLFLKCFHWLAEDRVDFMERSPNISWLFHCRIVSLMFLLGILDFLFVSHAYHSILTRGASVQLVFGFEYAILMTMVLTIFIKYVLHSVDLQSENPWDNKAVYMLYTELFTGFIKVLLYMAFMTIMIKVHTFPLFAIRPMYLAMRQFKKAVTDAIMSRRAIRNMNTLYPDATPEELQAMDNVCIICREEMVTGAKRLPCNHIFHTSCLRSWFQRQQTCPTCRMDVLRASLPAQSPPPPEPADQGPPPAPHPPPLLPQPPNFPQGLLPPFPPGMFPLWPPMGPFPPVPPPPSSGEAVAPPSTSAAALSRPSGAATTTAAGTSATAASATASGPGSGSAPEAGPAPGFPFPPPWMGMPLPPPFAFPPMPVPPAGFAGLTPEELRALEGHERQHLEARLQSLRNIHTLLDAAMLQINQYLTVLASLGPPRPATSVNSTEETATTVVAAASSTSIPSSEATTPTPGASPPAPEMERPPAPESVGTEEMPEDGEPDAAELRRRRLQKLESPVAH

Compound: Nc1ncnc2c1ncn2[C@@H]1O[C@H](COP(=O)(O)OP(=O)(O)OP(=O)(O)O)[C@@H](O)[C@H]1O [adenosine triphosphate]
Assay: NP40-soluble protein abundance relative to vehicle (solubility fold change) (ratio); higher = more soluble protein in presence of ATP
Summary of the method: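 Jurkat crude lysate prepared with a Dounce homogeniser was treated at eight concentrations spanning 0.1 to 10 mM, 10 min at room temperature then 3 min at 37 °C. Solubilisation with 0.8% NP40 and benzonase and ultracentrifugation preceded TMT labelling of the supernatant for LC-MS/MS. Fold change against the detergent-processed vehicle was determined per replicate from vsn-normalised intensities, across three independent experiments.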

Target	NP40-soluble protein abundance (concentration: 1mM)	NP40-soluble protein abundance (concentration: 2mM)	NP40-soluble protein abundance (concentration: 4mM)	NP40-soluble protein abundance (concentration: 6mM)	NP40-soluble protein abundance (concentration: 8mM)	NP40-soluble protein abundance (concentration: 10mM)
UniProt Q6PIJ6 and related entries	1.01 ± 0.066	0.9966 ± 0.0042	1.05 ± 0.03	0.973 ± 0.053	1.041 ± 0.0037	1.05 ± 0.068
UniProt Q6PHR2 and related entries	1.06 ± 0.061	1.06 ± 0.05	1.03 ± 0.061	1.03 ± 0.092	1.05 ± 0.084	0.993 ± 0.086
UniProt Q7Z4V5-2|Q7Z4V5 and related entries	0.79 ± 0.045	0.774 ± 0.025	0.734 ± 0.021	0.748 ± 0.03	0.694 ± 0.025	0.712 ± 0.024
RINL (UniProt Q6ZS11)	1.02 ± 0.029	0.987 ± 0.032	0.96737 ± 0.00041	1.02 ± 0.013	0.986 ± 0.035	1.02 ± 0.015
UniProt Q7Z7F0	0.96 ± 0.027	0.978 ± 0.019	0.977 ± 0.018	0.982 ± 0.029	0.954 ± 0.051	0.951 ± 0.033
UniProt Q6ZT12 and related entries	1.02 ± 0.011	1.03 ± 0.071	1.02 ± 0.064	0.992 ± 0.041	0.999 ± 0.057	0.96835 ± 0.0009
CYFIP1 (UniProt Q7L576)	1.04 ± 0.14	0.994 ± 0.098	1.01 ± 0.051	0.928 ± 0.12	1.03 ± 0.044	1 ± 0.037
CMC1 (UniProt Q7Z7K0)	0.918 ± 0.043	0.926 ± 0.014	0.95 ± 0.047	0.989 ± 0.069	0.879 ± 0.043	0.91 ± 0.089
NUDT18 (UniProt Q6ZVK8)	0.958 ± 0.024	0.976 ± 0.077	0.98 ± 0.076	0.987 ± 0.17	0.994 ± 0.072	1.03 ± 0.086
UniProt Q7Z460-4	1.09 ± 0.044	1.08 ± 0.046	1.1 ± 0.051	1.09 ± 0.054	1.08 ± 0.058	1.1 ± 0.066
UniProt Q86TN4 and related entries	1.03 ± 0.022	1.08 ± 0.033	1.12 ± 0.049	1.18 ± 0.069	1.17 ± 0.042	1.194 ± 0.011
UniProt Q86WA8 and related entries	0.939 ± 0.081	0.903 ± 0.042	0.895 ± 0.073	0.85 ± 0.067	0.883 ± 0.03	0.839 ± 0.057
UniProt Q86WQ0 and related entries	1.08 ± 0.046	1.05 ± 0.082	1.04 ± 0.011	1.06 ± 0.086	1.04 ± 0.073	1.01 ± 0.056
UniProt Q6ZU80 and related entries	1.04 ± 0.08	1.07 ± 0.077	1.11 ± 0.063	1.09 ± 0.12	1.12 ± 0.073	1.11 ± 0.053
UniProt Q70UQ0 and related entries	0.972 ± 0.074	1 ± 0.053	0.963 ± 0.026	0.983 ± 0.072	0.985 ± 0.043	0.926 ± 0.091
UniProt Q6ZNE5 and related entries	0.954 ± 0.13	1.01 ± 0.027	0.972 ± 0.021	1.02 ± 0.054	0.934 ± 0.11	0.988 ± 0.026
UniProt Q7Z392	1.05 ± 0.17	1.02 ± 0.16	1.01 ± 0.12	0.94 ± 0.16	1.03 ± 0.058	1.01 ± 0.1
UniProt Q6ZNJ1 and related entries	1.03 ± 0.069	1.01 ± 0.06	1.03 ± 0.04	0.956 ± 0.065	1.01 ± 0.027	1.01 ± 0.054
UniProt Q7Z5J4 and related entries	1.12 ± 0.053	1.1 ± 0.038	1.09 ± 0.013	1.18 ± 0.054	1.12 ± 0.038	1.2 ± 0.056
UniProt Q86YB8	0.913 ± 0.061	0.953 ± 0.03	0.974 ± 0.084	0.9745 ± 0.0083	0.929 ± 0.043	0.974 ± 0.032

Target	NP40-soluble protein abundance (concentration: 1mM)	NP40-soluble protein abundance (concentration: 2mM)	NP40-soluble protein abundance (concentration: 4mM)	NP40-soluble protein abundance (concentration: 6mM)	NP40-soluble protein abundance (concentration: 8mM)	NP40-soluble protein abundance (concentration: 10mM)
UniProt Q7Z7A1 and related entries	1.05 ± 0.25	1 ± 0.092	1.01 ± 0.12	1.05 ± 0.12	1.02 ± 0.079	1.05 ± 0.14
UniProt Q7L2H7	0.911 ± 0.034	0.983 ± 0.06	1.02 ± 0.041	0.937 ± 0.12	1.09 ± 0.078	1.25 ± 0.039
TMEM173 (UniProt Q86WV6)	0.998 ± 0.019	0.984 ± 0.021	0.963 ± 0.023	1 ± 0.053	0.969 ± 0.021	0.974 ± 0.03
UniProt Q6UUV7 and related entries	0.988 ± 0.055	1.05 ± 0.035	0.992 ± 0.013	0.92 ± 0.081	0.87 ± 0.027	0.942 ± 0.026
MTDH (UniProt Q86UE4)	1.09 ± 0.11	1.19 ± 0.05	1.3 ± 0.068	1.49 ± 0.11	1.45 ± 0.047	1.54 ± 0.074
TAOK1 (UniProt Q7L7X3)	1.01 ± 0.042	1.03 ± 0.023	1.1 ± 0.016	1.08 ± 0.048	1.04 ± 0.038	1.01 ± 0.022
UniProt Q86W92 and related entries	1.05 ± 0.097	1.08 ± 0.034	1.07 ± 0.058	1.1 ± 0.089	1.07 ± 0.11	1.07 ± 0.018
UniProt Q6UWI4	0.962 ± 0.046	0.968 ± 0.07	0.931 ± 0.11	0.947 ± 0.065	0.919 ± 0.097	0.921 ± 0.08
UniProt Q86UB9 and related entries	1.06 ± 0.18	1.01 ± 0.14	1.07 ± 0.097	1.11 ± 0.026	1.11 ± 0.086	1.11 ± 0.16
UniProt Q71F23	1.07 ± 0.058	1.18 ± 0.097	1.15 ± 0.16	1.21 ± 0.16	1.22 ± 0.21	1.29 ± 0.2
UniProt Q6UXN9	1.01 ± 0.2	1.01 ± 0.13	1.03 ± 0.1	0.948 ± 0.16	1.05 ± 0.083	1.06 ± 0.084
HEATR3 (UniProt Q7Z4Q2)	1.03 ± 0.043	1.02 ± 0.031	1.04 ± 0.043	1.03 ± 0.036	1.04 ± 0.045	1.07 ± 0.021
UniProt Q86VP1-2|B8ZZD4	0.96 ± 0.024	0.953 ± 0.016	0.9748 ± 0.0033	0.9677 ± 0.0042	0.9396 ± 0.007	0.9801 ± 0.003
GPRIN1 (UniProt Q7Z2K8)	0.961 ± 0.058	0.946 ± 0.03	1.02 ± 0.023	0.994 ± 0.086	0.955 ± 0.025	0.935 ± 0.049
UniProt Q7Z569 and related entries	0.98 ± 0.025	1.001 ± 0.0095	1.01 ± 0.028	1.03 ± 0.055	0.983 ± 0.033	0.984 ± 0.031
UniProt Q8IUI8 and related entries	1.02 ± 0.029	0.998 ± 0.05	0.99 ± 0.058	0.983 ± 0.072	0.987 ± 0.052	0.968 ± 0.055
C16orf87 (UniProt Q6PH81)	0.975 ± 0.087	0.994 ± 0.068	1.01 ± 0.056	1.09 ± 0.076	0.981 ± 0.093	1 ± 0.13
UniProt Q6ZXV5 and related entries	0.951 ± 0.098	0.914 ± 0.05	0.888 ± 0.1	0.927 ± 0.092	0.91 ± 0.063	0.894 ± 0.092
TRIM65 (UniProt Q6PJ69)	0.995 ± 0.051	0.981 ± 0.037	0.97 ± 0.043	0.963 ± 0.053	1 ± 0.038	0.986 ± 0.035
CES3 (UniProt Q6UWW8)	0.972 ± 0.063	1 ± 0.059	0.935 ± 0.04	1.02 ± 0.065	0.932 ± 0.068	0.925 ± 0.067

Target	NP40-soluble protein abundance (concentration: 1mM)	NP40-soluble protein abundance (concentration: 2mM)	NP40-soluble protein abundance (concentration: 4mM)	NP40-soluble protein abundance (concentration: 6mM)	NP40-soluble protein abundance (concentration: 8mM)	NP40-soluble protein abundance (concentration: 10mM)
UniProt Q7Z3C6 and related entries	0.972 ± 0.024	1.05 ± 0.056	1.042 ± 0.0084	1.02 ± 0.071	1.017 ± 0.0068	1.07 ± 0.044
CACUL1 (UniProt Q86Y37)	0.965 ± 0.031	0.984 ± 0.027	0.977 ± 0.035	0.971 ± 0.031	0.934 ± 0.031	0.928 ± 0.021
RABEPK (UniProt Q7Z6M1)	0.991 ± 0.024	0.967 ± 0.043	1.02 ± 0.044	0.999 ± 0.05	0.989 ± 0.055	0.969 ± 0.052
UniProt Q6ZNW5	0.952 ± 0.11	1.01 ± 0.033	0.984 ± 0.048	0.927 ± 0.13	0.903 ± 0.061	0.973 ± 0.083
UniProt Q86XK3 and related entries	1.11 ± 0.051	1.07 ± 0.037	1.18 ± 0.095	1.09 ± 0.12	1.07 ± 0.039	1.017 ± 0.0071
UniProt Q86W50	0.971 ± 0.026	0.932 ± 0.032	0.935 ± 0.053	0.921 ± 0.023	0.936 ± 0.039	0.936 ± 0.046
UniProt Q8IUF8	1.14 ± 0.074	1.19 ± 0.055	1.2 ± 0.03	1.19 ± 0.085	1.31 ± 0.038	1.27 ± 0.05
UniProt Q6R327 and related entries	1.23 ± 0.024	1.2 ± 0.042	1.18 ± 0.05	1.12 ± 0.086	1.16 ± 0.066	1.17 ± 0.086
UniProt Q7KZ85 and related entries	1.03 ± 0.022	0.995 ± 0.01	0.931 ± 0.014	0.864 ± 0.025	0.839 ± 0.019	0.821 ± 0.018
STXBP4 (UniProt Q6ZWJ1)	0.966 ± 0.08	0.998 ± 0.048	0.977 ± 0.042	1.01 ± 0.04	0.966 ± 0.045	0.977 ± 0.043
GLCCI1 (UniProt Q86VQ1)	0.995 ± 0.085	0.973 ± 0.077	1.05 ± 0.087	0.997 ± 0.053	0.973 ± 0.069	0.982 ± 0.096
UniProt Q7Z422 and related entries	0.925 ± 0.14	0.967 ± 0.11	0.943 ± 0.11	1.01 ± 0.14	0.887 ± 0.061	0.89 ± 0.13
UniProt Q6Y1H2	0.969 ± 0.018	0.9698 ± 0.0047	0.981 ± 0.024	1.02 ± 0.072	0.931 ± 0.03	0.952 ± 0.029
UniProt Q86TM6 and related entries	1 ± 0.0053	1.01 ± 0.029	0.981 ± 0.018	0.929 ± 0.013	0.931 ± 0.044	0.979 ± 0.053
UniProt Q7RTN6 and related entries	0.937 ± 0.16	0.964 ± 0.1	0.912 ± 0.27	0.877 ± 0.17	0.98 ± 0.11	0.993 ± 0.077
UniProt Q6VMQ6 and related entries	0.944 ± 0.068	0.946 ± 0.029	0.932 ± 0.031	0.985 ± 0.053	0.925 ± 0.02	0.95 ± 0.021
UniProt Q7L1Q6	0.928 ± 0.0094	0.942 ± 0.028	0.898 ± 0.022	0.931 ± 0.051	0.905 ± 0.044	0.908 ± 0.042
UniProt Q86XN7 and related entries	0.854 ± 0.079	0.89 ± 0.046	0.862 ± 0.1	0.868 ± 0.057	0.881 ± 0.021	0.848 ± 0.12
UniProt Q86UX7 and related entries	0.996 ± 0.14	0.999 ± 0.11	0.988 ± 0.086	0.917 ± 0.15	0.998 ± 0.059	0.997 ± 0.044
UniProt Q7Z3E2	0.967 ± 0.08	0.977 ± 0.023	1.02 ± 0.062	1.04 ± 0.037	0.956 ± 0.077	0.984 ± 0.066

Complete entries as entered above. Values in the order: NP40-soluble protein abundance (concentration: 1mM)	NP40-soluble protein abundance (concentration: 2mM)	NP40-soluble protein abundance (concentration: 4mM)	NP40-soluble protein abundance (concentration: 6mM)	NP40-soluble protein abundance (concentration: 8mM)	NP40-soluble protein abundance (concentration: 10mM)
UniProt Q7KZ85 and related entries as listed: 1.03 ± 0.022	0.995 ± 0.01	0.931 ± 0.014	0.864 ± 0.025	0.839 ± 0.019	0.821 ± 0.018
UniProt Q7L1Q6 as listed: 0.928 ± 0.0094	0.942 ± 0.028	0.898 ± 0.022	0.931 ± 0.051	0.905 ± 0.044	0.908 ± 0.042
UniProt Q7Z3C6 and related entries as listed: 0.972 ± 0.024	1.05 ± 0.056	1.042 ± 0.0084	1.02 ± 0.071	1.017 ± 0.0068	1.07 ± 0.044
CMC1 (UniProt Q7Z7K0) as listed: 0.918 ± 0.043	0.926 ± 0.014	0.95 ± 0.047	0.989 ± 0.069	0.879 ± 0.043	0.91 ± 0.089
